# Measured values: PubChem BioAssay AID1259415 (National Center for Advancing Translational Sciences (NCATS), 2018)
# Out of some 410,000 compounds screened, about 18,000 (4.4%) were called active. The inconclusive results got no clear call from the source; some entries with a clear call stand among them for comparison. Rule as the data show it: active = activity change below about -60%; inconclusive = no clear call, values can overlap the other calls; inactive = above about -39%.
# Assay: qHTS Assay for inhibitors of the human cytomegalovirus (HCMV)
# Conditions: HFF cells, HCMV-luciferase reporter, 72 h; at 57.5 µM; active compounds read low
# Method in brief: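 Luciferase read-out from HCMV-luciferase-infected HFFs (MOI 1 PFU/cell) 72 h post infection at 37C; compounds added after 16 h cell attachment; activity normalized between buffer-only basal and Salinomycin (10uM) inhibitor controls.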
# % is scaled to controls: 0 for no effect and ±100 for the full control effect.
row,Compound,"activity change, negative = inhibition"
1,CC(CN1CCNCC1)(NS(=O)(=O)c1ccccc1)c1ccccc1 (stereo not drawn),inactive: 25.1%
2,N#Cc1c2n(c3c(=O)n(Cc4ccccc4Cl)cnc13)CCCCC2,inconclusive: -52.3%
3,CC(C)(C)OC(=O)C[C@H]1C/C=C\C[C@@H](CC(=O)N[C@@H](CO)Cc2ccccc2)C(=O)N2CCC[C@@H]2COC1=O,inconclusive: -42.5%
4,COC(=O)C1=C(c2cc3ccccc3s2)C[C@@H]2CC[C@H]1N2C(=O)NC1CC1,active: -63.5%
5,O=c1c(Cc2ccccc2)c(O)ccn1Cc1ccco1,inconclusive: -42.2%
6,O=C(CSc1nncs1)NC(=O)NC1CCCC1,inconclusive: -47.1%
7,COc1ccc(-c2nn(CCC#N)cc2C(=O)Nc2cccc(C(=O)O)c2)cc1OC,inactive: 33.4%
8,CCOC(=O)c1ccccc1NC(=O)N(C(C)C)C1CCN(C(C)=O)CC1,inactive: 13.5%
9,CCOC(=O)Cn1nc(-c2ccccc2)c(-c2ccccc2)nc1=O,inconclusive: -44.5%
10,Cc1ccc2nc(NC(=O)C3CCN(S(=O)(=O)c4cnc[nH]4)CC3)sc2c1,inconclusive: -43%
11,CCOC(=O)C1=C(c2ccccc2)Nc2ncnn2C1c1ccc(OC)c(OC)c1OC (stereo not drawn),inactive: 6.4%
12,CC(C)(C)c1ccc(-c2nc(SCCCOc3ccccc3)n3[nH]c(=O)cc3n2)cc1,inconclusive: -58.6%
13,COc1ccccc1C(OC(=O)c1ccco1)C(=O)NC(C)(C)C (stereo not drawn),active: -81.7%
14,Cn1ccnc1P(=S)(c1nccn1C)N1CCOCC1,inactive: 49.3%
15,Nc1ccc(-c2cnc3ccccc3n2)cc1,inactive: 94.7%
16,CCN(CC)c1cc2c(cc1F)c(=O)c(S(=O)(=O)c1ccc(OC)cc1)cn2CC,inconclusive: -52%
17,S=c1[nH]nc(C2CCCCC2)n1/N=C/c1c(Cl)cccc1Cl,inconclusive: -52.3%
18,CCOc1ccc(CNC(=O)C2CCCN(S(=O)(=O)c3ccc4c(ccn4C)c3)C2)cc1 (stereo not drawn),inconclusive: -42%
19,COc1ccc(/C=N/NC(=O)c2ccc(Br)cc2)c(OC)c1,inconclusive: -40.6%
20,Cc1ccc(-c2nnc(OCC3CCCO3)c3ccccc23)cc1 (stereo not drawn),inconclusive: -40.3%
21,COc1ccc(CCC(=O)Nc2ccc(C)c(S(=O)(=O)N(C)C)c2)cc1OC,active: -77.5%
22,Cc1ccc(C(=O)Nc2nc(-c3ccc([N+](=O)[O-])cc3)cs2)o1,inconclusive: -41.7%

row,Compound,"activity change, negative = inhibition"
1,O=[N+]([O-])c1ccccc1Nc1ccccc1,inconclusive: -51.2%
2,CCOC(=O)C(C(=O)OCC)N(C#N)c1nc(C)cc(C)n1,inconclusive: -54.2%
3,Cc1cc(C)n(-c2ccc(Cl)c(C(=O)NCc3ccccc3)n2)n1,inconclusive: -41.7%
4,N#CC1(NC(=O)CSc2nnc(Cc3ccccc3)o2)CCCCC1,inactive: -13.8%
5,CCOc1ccccc1NC(=O)C(=O)N/N=C/c1ccc([N+](=O)[O-])cc1,inconclusive: -41.8%
6,CC(=O)c1ccc(NC(=S)Nc2ccc3cn[nH]c3c2)cc1,active: -67.9%
7,Cc1cc(C)n(/N=C/c2ccccc2O)c(=O)c1,inconclusive: -54.7%
8,O=C1c2sc3nc4c(c(=O)n3c2C(=O)N1c1ccccc1)CCC4,inconclusive: -48.9%
9,CC(/C=N/NC(=O)c1n[nH]c2c1CCC2)=C\c1ccccc1,active: -88%
10,O=C(CN1CCN(S(=O)(=O)c2ccc(Br)cc2)CC1)N/N=C/c1ccc(Cl)c([N+](=O)[O-])c1,inactive: -24.8%
11,O=C(Nc1ccc(Cl)cc1)Nc1ccc2c(c1)N1CCN=C1S2,inconclusive: -49.4%
12,CCC(=O)NC1(Cc2ccc(O)cc2)CCCCC1,inconclusive: -42.4%
13,CCc1sc(N(C(=O)Cc2ccccc2)c2ccccc2F)nc1-c1ccc(C)cc1,inconclusive: -41.5%
14,CN(C)S(=O)(=O)c1cccc(NC(=S)NNC(=O)c2cc3ccccc3cc2O)c1,inactive: 1.84%
15,CC(C)(C)c1cc(Cl)ccc1OCCOCCN1CCCC1,inactive: -10.2%
16,COc1ccc(C2=NS(=O)(=O)N(C)C(C(=O)Nc3ccc(OC)c(OC)c3)=C2)cc1,inconclusive: -51%
17,O=C(NCc1ccccc1)/C(=C\c1ccccc1)NC(=O)c1ccco1,inactive: -26.6%
18,COc1ccc(-c2nc(CSc3nncn4c3cc3sccc34)c(C)o2)cc1OC,inconclusive: -55.5%
19,CCOC(=O)N1CCN(C(=O)CCN2C(=O)COc3ccccc32)CC1,active: -61.5%
20,Cc1ccc(CCNC(=O)CCS(=O)(=O)c2ccc3nc(C)sc3c2)cc1,inconclusive: -48.7%
21,O=C(Nc1ccc2nc(-c3ccccn3)c(-c3ccccn3)nc2c1)N1CCOCC1,inconclusive: -47.4%

# 2 entries from above, as tab-separated lines:
row	Compound	activity change, negative = inhibition
11	O=C(Nc1ccc(Cl)cc1)Nc1ccc2c(c1)N1CCN=C1S2	inconclusive: -49.4%
12	CCC(=O)NC1(Cc2ccc(O)cc2)CCCCC1	inconclusive: -42.4%
